These are yes or no findings as the source states them, for the method shown. In cells and extracts the contact can be indirect. Some binding calls cover weakened binding; strength is not graded here. Where a sequence is shown, tags or fusion partners need not be part of it.
Target: T1, Myc-SCLY (selenocysteine lyase) (not stated (human or mouse cDNA cloned)) (UniProt Q96I15)
T1 sequence: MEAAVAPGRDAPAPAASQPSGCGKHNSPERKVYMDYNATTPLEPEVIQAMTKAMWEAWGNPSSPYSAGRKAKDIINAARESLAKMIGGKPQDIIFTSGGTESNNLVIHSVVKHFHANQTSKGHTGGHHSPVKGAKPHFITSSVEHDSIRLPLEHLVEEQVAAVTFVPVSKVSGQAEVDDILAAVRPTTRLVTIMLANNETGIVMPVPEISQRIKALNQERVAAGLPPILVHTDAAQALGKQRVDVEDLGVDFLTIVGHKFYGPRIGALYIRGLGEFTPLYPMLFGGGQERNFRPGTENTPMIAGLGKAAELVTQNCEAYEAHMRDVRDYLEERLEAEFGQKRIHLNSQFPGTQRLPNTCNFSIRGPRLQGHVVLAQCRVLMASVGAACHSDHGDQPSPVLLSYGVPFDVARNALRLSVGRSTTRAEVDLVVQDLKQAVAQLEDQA
Assay: proximity ligation; A549 cells, empty or expressing Myc-SEPHS2 or Myc-SCLY, fixed with 4% formaldehyde, permeabilised with 0.1% Triton X-100; primary antibodies to PRDX6 (rabbit polyclonal) and Myc (mouse monoclonal); Duolink kit; PLA foci counted

B1: peroxiredoxin 6 (PRDX6), endogenous in A549 cells (protein, UniProt P30041 1-224)
chain: MPGGLLLGDVAPNFEANTTVGRIRFHDFLGDSWGILFSHPRDFTPVCTTELGRAAKLAPEFAKRNVKLIALSIDSVEDHLAWSKDINAYNCEEPTEKLPFPIIDDRNRELAILLGMLDPAEKDEKGMPVTARVVFVFGPDKKLKLSILYPATTGRNFDEILRVVISLQLTAEKRVATPVDWKDGDSVMVLPTIPEEEAKKLFPKGVFTKELPSGKKYLRYTPQP
B1 was tested, and the binding was “binds”.

From PMC11327102
